Laboratory results: PubChem BioAssay AID504327 (National Center for Advancing Translational Sciences (NCATS), 2011)
Several values for one entry are separate records, joined by “and”; a condition that tells them apart may be missing. Equal values may be shown once. The campaign covered roughly 390,000 compounds. About 820 (0.21%) were called active. The shares of active, inactive and inconclusive entries below differ from those in the screen. The call rests on the fitted dose curve; in most records, active means well fitted inhibition curve with a large enough effect; inconclusive means small, poorly fitted or top-dose-only effect, or another doubt; inactive means no such curve, though single readings can be large or run the other way. Where the call is inconclusive, the potency comes from a doubtful curve fit.

Protein sequences, listed by entry. Tags and fused reporters are not part of them.
UniProt Q92830, whole entry, looked up: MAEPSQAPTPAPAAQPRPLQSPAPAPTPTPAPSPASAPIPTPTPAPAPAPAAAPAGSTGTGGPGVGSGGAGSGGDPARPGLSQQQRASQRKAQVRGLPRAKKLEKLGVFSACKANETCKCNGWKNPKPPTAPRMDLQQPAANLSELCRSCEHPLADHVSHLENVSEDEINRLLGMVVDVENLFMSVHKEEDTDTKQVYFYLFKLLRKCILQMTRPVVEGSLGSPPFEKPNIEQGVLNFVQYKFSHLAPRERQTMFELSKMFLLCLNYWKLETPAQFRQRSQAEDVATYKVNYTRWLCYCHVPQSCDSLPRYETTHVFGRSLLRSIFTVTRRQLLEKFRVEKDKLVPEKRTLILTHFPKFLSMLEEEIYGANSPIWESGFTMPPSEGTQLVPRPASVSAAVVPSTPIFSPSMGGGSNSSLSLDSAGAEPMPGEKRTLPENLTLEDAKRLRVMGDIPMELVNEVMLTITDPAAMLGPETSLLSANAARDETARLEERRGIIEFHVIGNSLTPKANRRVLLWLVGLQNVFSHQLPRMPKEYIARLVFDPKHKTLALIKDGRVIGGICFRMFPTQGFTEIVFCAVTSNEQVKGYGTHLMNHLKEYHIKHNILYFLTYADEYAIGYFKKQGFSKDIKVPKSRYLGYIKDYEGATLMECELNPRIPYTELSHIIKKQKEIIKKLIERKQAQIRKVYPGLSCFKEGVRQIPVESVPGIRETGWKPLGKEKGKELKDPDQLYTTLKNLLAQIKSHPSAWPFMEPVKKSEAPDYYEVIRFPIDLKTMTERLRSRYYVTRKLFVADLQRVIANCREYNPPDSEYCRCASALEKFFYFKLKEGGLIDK

Target: Histone acetyltransferase KAT2A (Homo sapiens) (UniProt Q92830)
Assay: qHTS Assay for Inhibitors of GCN5L2
Details: GCN5L2 HAT assay, ThioGlo1 CoA-SH fluorescence; series mostly up to 58.9 µM
Outline: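 GCN5L2 (20nM final) in 50mM HEPES, 0.1mM EDTA pH 7.5, 0.01% Tween-20 was preincubated 15 min at room temperature with compound, then given ThioGlo1 (50uM), H3(1-25) peptide (75uM) and acetyl-CoA (70uM); CoA-thiol fluorescence (Ex340/Em540) was read at 0 and 20 min.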
Potency means the concentration at half of the fitted maximal effect.

SMILES	Potency
COc1cc(C(C)=O)ccc1OC(=O)CN1C(=O)c2ccccc2C1=O	inconclusive: 2.82 µM [inhibitor, partial curve, poor fit]
Cc1ccc(C)c(NC(=O)CSc2nccn2Cc2ccco2)c1	inconclusive: 39.8 µM [inhibitor, single point]
COc1ccc(OC)c(NC(=O)CSc2nnc(CNC(=O)c3cc(OC)c(OC)c(OC)c3)o2)c1	inconclusive: 10 µM [inhibitor, partial curve, poor fit]
OC(COc1ccccc1Br)CN1CCNCC1 (stereo not given)	inactive
COc1ccc(N2CCN(C(=O)CN(C3CCCCC3)S(C)(=O)=O)CC2)cc1	inconclusive: 22.4 µM [inhibitor, single point]
O=C(CCc1ccccc1)NCc1ccc2c(c1)OCO2	inconclusive: 22.4 µM [inhibitor, partial curve, poor fit]
Cc1ccc(NC(=O)CSCC(=O)N2CCN(c3cccc(C(F)(F)F)c3)CC2)cc1	inactive
CC(=O)NCCCC[C@H](NC(=O)OC(C)(C)C)C(=O)Nc1ccc2c(C(F)(F)F)cc(=O)oc2c1	inconclusive: 39.8 µM [inhibitor, single point]
Cc1ccc(-c2cc(-c3n[nH]c(=S)o3)c3ccccc3n2)cc1	inconclusive: 31.6 µM [inhibitor, single point]
CCCCN1CC(C(=O)NC2CCCCC2)CC1=O (stereo not given)	inconclusive: 4.47 µM [inhibitor, full curve, poor fit]
CCOc1ccc(C(=O)N(CN2CCCC2=O)c2ccccc2)cc1	inconclusive: 20 µM [inhibitor, single point]
CCCC(C)NC(=O)C1c2ccccc2Oc2ccccc21 (stereo not given)	inconclusive: 39.8 µM [inhibitor, single point]
COc1ccc(C(=O)NCc2ccc3c(c2)OCO3)c(OC)c1	inconclusive: 8.91 µM [inhibitor, single point]
Cc1cccc(/C(N)=N/OC(=O)CCCN2C(=O)c3ccccc3C2=O)c1	inconclusive: 39.8 µM [inhibitor, single point]
O=c1cc(C(F)(F)F)[nH]c2c(OC(F)(F)F)cccc12	inconclusive: 50.1 µM [inhibitor, single point]
CSCc1cc(N2CCOCC2)nc(SCc2ccc(Cl)c(Cl)c2)n1	inconclusive: 39.8 µM [inhibitor, single point]
O=S(=O)(c1ccc(Cl)cc1)c1nc(-c2ccccc2F)oc1NCCN1CCOCC1	inconclusive: 0.891 µM [inhibitor, full curve, poor fit]
CC(C)(C)OC(=O)N1CCC[C@H]1c1nnc(SCC(=O)Nc2ccc(Br)cc2)o1	inconclusive: 10 µM [inhibitor, partial curve, poor fit]
COc1cc(-c2c(-c3cc(OC)c(OC)c(OC)c3)noc2C)ccc1F	inconclusive: 0.708 µM [inhibitor, single point]
Cc1c(Cl)cccc1NC(=O)CC1SCCNC1=O (stereo not given)	inactive
Cc1cc(C)c(S(=O)(=O)c2cccc(C(F)(F)F)c2)c(=O)[nH]1	inconclusive: 0.708 µM [inhibitor, single point]
O=C(CCC(=O)N1CCOc2ccc(Cl)cc21)NCCN1CCOCC1	inconclusive: 0.126 µM [inhibitor, full curve, poor fit]

SMILES	Potency
S=c1[nH]nc(-c2ccccn2)n1/N=C/c1ccc(-c2ccccc2Cl)o1	inconclusive: 39.8 µM [inhibitor, single point]
COc1ccccc1N1CCN(C(=O)c2oc3ccccc3c2C)CC1	inconclusive: 3.55 µM [inhibitor, single point]
O=c1c(Cl)c(Cl)cnn1-c1ccccc1	inactive
C1CSC2(N1)C1CC3CC(C1)CC2C3 (stereo not given)	inconclusive: 39.8 µM [inhibitor, single point]
Cc1[nH]nc(N=CC2=C(O)CC(C)(C)CC2=O)c1-c1ccc(Cl)cc1	inconclusive: 39.8 µM [inhibitor, single point]
COc1ccc(S(=O)(=O)N2CCCC(C(=O)NCc3ccccn3)C2)cc1Cl (stereo not given)	inconclusive: 14.1 µM [inhibitor, partial curve]
COCCNC(=O)CC(=O)N/N=C/c1ccc(C(=O)OC)cc1	inconclusive: 25.1 µM [inhibitor, single point]
O=C(c1ccc2nc(-c3ccccc3)c(-c3ccccc3)nc2c1)N1CCCCC1	inactive
COc1ccc(OC)c(-c2c3cc(O)c(=O)cc-3oc3cc(O)c(O)cc23)c1	inconclusive: 31.6 µM [inhibitor, single point]
CCOc1cccc(CN2CCC(n3nccc3NC(=O)CCCc3ccccc3)CC2)c1	inconclusive: 25.1 µM [inhibitor, single point]
COc1cccc(-c2[nH]nc3c2C(c2ccoc2)C(C#N)=C(N)O3)c1 (stereo not given)	inactive
Clc1ccc(-c2nnc3n2CCCC3)cc1	inconclusive: 2.82 µM [inhibitor, single point]
CN(C)c1ccc(CNC(=O)c2cc(S(=O)(=O)N3CCCC3)cn2C)cc1	inconclusive: 0.562 µM [inhibitor, partial curve, poor fit]
COc1cccc(-c2csc(N3CCN(C(=S)Nc4ccc(Cl)cc4)CC3)n2)c1	inconclusive: 0.891 µM [inhibitor, full curve, poor fit]
CCCN(C(=O)c1ccco1)c1nnc(-c2ccccc2C)s1	inconclusive: 7.08 µM [inhibitor, full curve]
CN(Cc1ccccc1)C(=O)c1ncn(C)c1C(=O)N(C)Cc1ccccc1	inconclusive: 28.2 µM [inhibitor, single point]
COc1cccc(CNCCSc2nnnn2C)c1OCc1ccccc1F	inactive
c1ccc(CNc2nc(-c3cccnc3)nc3ccccc23)cc1	inconclusive: 28.2 µM [inhibitor, partial curve]
O=C(Nc1ccc(Oc2ccccc2)nc1)C1CCN(Cc2ccco2)CC1	inconclusive: 0.1 µM [inhibitor, full curve, poor fit]
CCc1ccc(/C=C2\CN(CC)Cc3c2nc2ccccc2c3C(=O)O)cc1	active: 2 µM
Cc1noc(C)c1C(=O)OCC(=O)Nc1ccc(C(N)=O)cc1	inactive
Cc1cc(NC(=O)CSCC(=O)OCC(=O)c2cccc(Br)c2)no1	inconclusive: 28.2 µM [inhibitor, single point]

Shown in markdown: part of the list above.

| SMILES | Potency |
| --- | --- |
| CCCCN1CC(C(=O)NC2CCCCC2)CC1=O (stereo not given) | inconclusive: 4.47 µM [inhibitor, full curve, poor fit] |
| CCOc1ccc(C(=O)N(CN2CCCC2=O)c2ccccc2)cc1 | inconclusive: 20 µM [inhibitor, single point] |
| CCCC(C)NC(=O)C1c2ccccc2Oc2ccccc21 (stereo not given) | inconclusive: 39.8 µM [inhibitor, single point] |
| COc1ccc(C(=O)NCc2ccc3c(c2)OCO3)c(OC)c1 | inconclusive: 8.91 µM [inhibitor, single point] |
| Cc1cccc(/C(N)=N/OC(=O)CCCN2C(=O)c3ccccc3C2=O)c1 | inconclusive: 39.8 µM [inhibitor, single point] |
| O=c1cc(C(F)(F)F)[nH]c2c(OC(F)(F)F)cccc12 | inconclusive: 50.1 µM [inhibitor, single point] |
| CSCc1cc(N2CCOCC2)nc(SCc2ccc(Cl)c(Cl)c2)n1 | inconclusive: 39.8 µM [inhibitor, single point] |
| O=S(=O)(c1ccc(Cl)cc1)c1nc(-c2ccccc2F)oc1NCCN1CCOCC1 | inconclusive: 0.891 µM [inhibitor, full curve, poor fit] |
| CC(C)(C)OC(=O)N1CCC[C@H]1c1nnc(SCC(=O)Nc2ccc(Br)cc2)o1 | inconclusive: 10 µM [inhibitor, partial curve, poor fit] |
| COc1cc(-c2c(-c3cc(OC)c(OC)c(OC)c3)noc2C)ccc1F | inconclusive: 0.708 µM [inhibitor, single point] |
| Cc1c(Cl)cccc1NC(=O)CC1SCCNC1=O (stereo not given) | inactive |
| Cc1cc(C)c(S(=O)(=O)c2cccc(C(F)(F)F)c2)c(=O)[nH]1 | inconclusive: 0.708 µM [inhibitor, single point] |

Further entries:

SMILES	Potency
Cc1cc(C)n2nc(C(=O)OC(C)C(=O)c3ccccc3)nc2n1 (stereo not given)	inconclusive: 39.8 µM [inhibitor, single point]
CCCCc1nn(-c2ccccc2C(F)(F)F)c(=O)n1Cc1ccc(-c2ccccc2S(=O)(=O)NC(=O)c2sccc2C)cc1	inconclusive: 39.8 µM [inhibitor, single point]
O=C1OCCN1C(=O)[C@H]1[C@H](c2ccc(F)cc2)C(c2ccccc2)=NN1c1ccc(Br)cc1	inconclusive: 22.4 µM [inhibitor, single point] and inconclusive: 25.1 µM [inhibitor, single point]
CCOC(=O)c1c(/N=C/N(C)C)sc(/C=N/Nc2ccccc2)c1-c1ccccc1	inconclusive: 39.8 µM [inhibitor, single point]
COc1ccc(NCCC(O)c2ccc(Cl)cc2)cc1 (stereo not given)	inconclusive: 28.2 µM [inhibitor, single point]
O=C(NCc1ccco1)C(=O)NCC1OCCN1S(=O)(=O)c1cc(F)ccc1F (stereo not given)	inactive
FC(F)(F)c1cc(-c2cccs2)nc(NCc2ccco2)n1	inconclusive: 0.891 µM [inhibitor, single point]
CCC1CCCCN1CCCNC(=O)CCC(=O)N1CC(C)Oc2ccccc21 (stereo not given)	inconclusive: 3.16 µM [inhibitor, single point]
Cc1nc2ccc([N+](=O)[O-])cc2c(=O)n1Cc1ccc(F)cc1	inactive
COC(=O)C1=C(C)N(Cc2ccccc2)C(=S)N[C@H]1c1ccccc1	inconclusive: 7.08 µM [inhibitor, single point]
CCCc1ccc2oc(C(=O)N3CCN(C4CCS(=O)(=O)C4)CC3)c(C)c2c1 (stereo not given)	inconclusive: 0.251 µM [inhibitor, full curve, poor fit]
CCOC(=O)C1=C(c2ccccc2)c2ccccc2OC1C(=O)OCC (stereo not given)	inconclusive: 0.178 µM [inhibitor, full curve, poor fit]
CC(=O)N1c2ccc(S(=O)(=O)NCCC(=O)N(C)Cc3ccccc3)cc2CC1C (stereo not given)	inactive
CC(C)CC1=C/C(=C/c2ccc(-c3ccccc3)o2)C(=O)O1	inconclusive: 35.5 µM [inhibitor, single point]
CCCCCn1c(=O)[nH]c2cc(C(=O)N3CCN(Cc4ccc5c(c4)OCO5)CC3)ccc2c1=O	inactive
O=c1[nH]c(=S)[nH]c2c1C(c1ccc(Br)cc1)c1c([nH]c(=S)[nH]c1=O)O2	active: 14.1 µM
CCc1cccc(C)c1NC(=O)CCS(=O)(=O)c1ccc2c(c1)oc(=O)n2C	inactive
Cc1nn(C)cc1S(=O)(=O)Nc1ccccc1Br	inconclusive: 0.891 µM [inhibitor, full curve]
Cc1ccc(N2CC(C)Cn3c2nc2c3c(=O)[nH]c(=O)n2C)cc1C (stereo not given)	inactive
COc1ccccc1NC(=O)c1sc2nc(C)c(C(=O)Nc3ccc(C)cc3C)c(-c3ccccc3Cl)c2c1N	inconclusive: 25.1 µM [inhibitor, partial curve]
CCOC(=O)Cc1csc(NC(=O)NC2(C(F)(F)F)Oc3ccc(Cl)cc3O2)n1 (stereo not given)	inactive
